This note sets out measurements from publication doi:10.1101/2021.08.25.457662.

In assay [1] the target is endogenous Gsdmd-N (mouse (endogenous in BMDMs)) (UniProt Q9D8T2). The assay is described as follows: native gel or EMSA. For orientation: A gel shift assay detects complexes by their altered migration in electrophoresis.
Assay [2] has the same target. The assay is described as follows: native gel or EMSA. This is another data set of the same source.
The target of assay [3] is T1, caspase-11 (co-IP of Fig. 1F) (mouse) (UniProt P70343).
T1 sequence: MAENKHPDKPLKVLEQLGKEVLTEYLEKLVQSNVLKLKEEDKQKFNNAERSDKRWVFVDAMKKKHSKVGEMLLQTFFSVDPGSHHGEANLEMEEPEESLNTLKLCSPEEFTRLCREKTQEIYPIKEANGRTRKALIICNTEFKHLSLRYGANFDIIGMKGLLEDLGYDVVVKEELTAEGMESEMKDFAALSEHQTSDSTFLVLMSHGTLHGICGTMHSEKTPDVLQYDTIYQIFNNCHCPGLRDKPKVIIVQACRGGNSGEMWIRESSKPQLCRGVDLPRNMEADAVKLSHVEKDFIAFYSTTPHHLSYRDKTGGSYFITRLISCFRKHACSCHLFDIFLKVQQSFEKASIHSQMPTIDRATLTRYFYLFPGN
In words: co-IP.

The target of assay [4] is T2, recombinant Flag-caspase-11 (mouse) (UniProt P70343).
T2 sequence: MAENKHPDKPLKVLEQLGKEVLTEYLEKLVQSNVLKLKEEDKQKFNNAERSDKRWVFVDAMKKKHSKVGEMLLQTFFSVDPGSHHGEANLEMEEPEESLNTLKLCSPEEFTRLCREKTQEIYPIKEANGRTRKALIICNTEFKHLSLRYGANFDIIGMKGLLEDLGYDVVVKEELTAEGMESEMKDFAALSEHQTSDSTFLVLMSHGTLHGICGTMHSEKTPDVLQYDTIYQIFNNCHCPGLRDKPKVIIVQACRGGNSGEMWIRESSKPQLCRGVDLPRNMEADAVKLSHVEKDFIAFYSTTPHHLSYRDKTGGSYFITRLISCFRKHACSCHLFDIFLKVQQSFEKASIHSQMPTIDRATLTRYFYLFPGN
In words: co-IP.

The target of assay [5] is T3, Gsdmd-N-GFP (mouse) (UniProt Q9D8T2).
T3 sequence: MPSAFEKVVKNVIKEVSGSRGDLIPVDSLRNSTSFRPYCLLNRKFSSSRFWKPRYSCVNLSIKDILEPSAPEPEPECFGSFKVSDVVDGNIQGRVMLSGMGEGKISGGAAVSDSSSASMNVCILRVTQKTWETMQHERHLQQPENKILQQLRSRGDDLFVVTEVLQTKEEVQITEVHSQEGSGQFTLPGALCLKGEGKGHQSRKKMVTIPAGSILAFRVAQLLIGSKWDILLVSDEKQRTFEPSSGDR
In words: co-IP.

Assay [6] has as its target T3, Gsdmd-N-GFP (mouse). The assay is described as follows: co-IP. This is another data set of the same source.
The target in another assay is T4, HA-Gsdmd C-term (mouse) (UniProt Q9D8T2).
T4 sequence: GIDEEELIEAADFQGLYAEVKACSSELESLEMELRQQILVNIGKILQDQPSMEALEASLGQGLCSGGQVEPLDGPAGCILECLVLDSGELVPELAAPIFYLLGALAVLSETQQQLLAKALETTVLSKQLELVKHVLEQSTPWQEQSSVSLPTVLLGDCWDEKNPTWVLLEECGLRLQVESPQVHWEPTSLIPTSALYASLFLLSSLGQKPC
The assay is described as follows: co-IP.

Assay [7] has as its target T3, Gsdmd-N-GFP (mouse). The assay is described as follows: non-reducing PAGE and immunoblot.

Where two headings read alike, the source gives them in different places. Results are given in words; binding and its absence hold for the method and conditions named. For some of these results: Binding seen in cells or lysates may run through a third protein. Some results given as binding are weak or reduced against the parent protein; the word gives no strength. For some of these results: Where a sequence is shown, tags or fusion partners need not be part of it.

B1: endogenous Gsdmd-N (domain or fragment, UniProt Q9D8T2 1-276)
chain: MPSAFEKVVKNVIKEVSGSRGDLIPVDSLRNSTSFRPYCLLNRKFSSSRFWKPRYSCVNLSIKDILEPSAPEPEPECFGSFKVSDVVDGNIQGRVMLSGMGEGKISGGAAVSDSSSASMNVCILRVTQKTWETMQHERHLQQPENKILQQLRSRGDDLFVVTEVLQTKEEVQITEVHSQEGSGQFTLPGALCLKGEGKGHQSRKKMVTIPAGSILAFRVAQLLIGSKWDILLVSDEKQRTFEPSSGDRKAVGQRHHGLNVLAALCSIGKQLSLLSD
As to B1, the binding entry in assay [1] is “no binding (condition: Gbp3^-/^- BMDMs)”; in assay [2], “binds”.

B2: Gbp2 (co-IP of Fig. 1F) (protein, UniProt Q9Z0E6 1-589)
chain: MASEIHMSEPMCLIENTEAQLVINQEALRILSAITQPVVVVAIVGLYRTGKSYLMNKLAGKRTGFSLGSTVQSHTKGIWMWCVPHPKKAGQTLVLLDTEGLEDVEKGDNQNDCWIFALAVLLSSTFIYNSIGTINQQAMDQLHYVTELTDLIKSKSSPDQSGVDDSANFVGFFPTFVWTLRDFSLELEVNGKPVTSDEYLEHSLTLKKGADKKTKSFNEPRLCIRKFFPKRKCFIFDRPAQRKQLSKLETLREEELCGEFVEQVAEFTSYILSYSSVKTLCGGIIVNGPRLKSLVQTYVGAISNGSLPCMESAVLTLAQIENSAAVQKAITHYEEQMNQKIQMPTETLQELLDLHRPIESEAIEVFLKNSFKDVDQKFQTELGNLLVAKRDAFIKKNMDVSSARCSDLLEDIFGPLEEEVKLGTFSKPGGYYLFLQMRQELEKKYNQAPGKGLQAEAMLKNYFDSKADVVETLLQTDQSLTEAAKEVEEERTKAEAAEAANRELEKKQKEFELMMQQKEKSYQEHVKKLTEKMKDEQKQLLAEQENIIAAKLREQEKFLKEGFENESKKLIREIDTLKQNKSSGKCTIL
Regarding B2, in assay [3], the binding result is reported as “binds”.

B3: recombinant Myc-Gbp2 (protein, UniProt Q9Z0E6 1-589)
chain: MASEIHMSEPMCLIENTEAQLVINQEALRILSAITQPVVVVAIVGLYRTGKSYLMNKLAGKRTGFSLGSTVQSHTKGIWMWCVPHPKKAGQTLVLLDTEGLEDVEKGDNQNDCWIFALAVLLSSTFIYNSIGTINQQAMDQLHYVTELTDLIKSKSSPDQSGVDDSANFVGFFPTFVWTLRDFSLELEVNGKPVTSDEYLEHSLTLKKGADKKTKSFNEPRLCIRKFFPKRKCFIFDRPAQRKQLSKLETLREEELCGEFVEQVAEFTSYILSYSSVKTLCGGIIVNGPRLKSLVQTYVGAISNGSLPCMESAVLTLAQIENSAAVQKAITHYEEQMNQKIQMPTETLQELLDLHRPIESEAIEVFLKNSFKDVDQKFQTELGNLLVAKRDAFIKKNMDVSSARCSDLLEDIFGPLEEEVKLGTFSKPGGYYLFLQMRQELEKKYNQAPGKGLQAEAMLKNYFDSKADVVETLLQTDQSLTEAAKEVEEERTKAEAAEAANRELEKKQKEFELMMQQKEKSYQEHVKKLTEKMKDEQKQLLAEQENIIAAKLREQEKFLKEGFENESKKLIREIDTLKQNKSSGKCTIL
On to B3, for which the binding entry in assay [4] is listed as “binds”.

B4: Gbp1 (co-IP of Fig. 1F) (protein, UniProt Q01514 1-589)
chain: MASEIHMSEPMCLIENTEAQLVINQEALRILSAITQPVVVVAIVGLYRTGKSYLMNKLAGKRTGFSLGSTVQSHTKGIWMWCVPHPKKAGQTLVLLDTEGLEDVEKGDNQNDCWIFALAVLLSSTFIYNSIGTINQQAMDQLHYVTELTDLIKSKSSPDQSDVDNSANFVGFFPIFVWTLRDFSLDLEFDGESITPDEYLETSLALRKGTDENTKKFNMPRLCIRKFFPKRKCFIFDRPGDRKQLSKLEWIQEDQLNKEFVEQVAEFTSYIFSYSGVKTLSGGITVNGPRLKSLVQTYVSAICSGELPCMENAVLTLAQIENSAAVQKAITYYEEQMNQKIHMPTETLQELLDLHRTCEREAIEVFMKNSFKDVDQKFQEELGAQLEAKRDAFVKKNMDMSSAHCSDLLEGLFAHLEEEVKQGTFYKPGGYYLFLQRKQELEKKYIQTPGKGLQAEVMLRKYFESKEDLADTLLKMDQSLTEKEKQIEMERIKAEAAEAANRALAEMQKKHEMLMEQKEQSYQEHMKQLTEKMEQERKELMAEQQRIISLKLQEQERLLKQGFQNESLQLRQEIEKIKNMPPPRSCTIL
As for B4, in assay [3], the binding result is “no binding”.

B5: Gbp3 (co-IP of Fig. 1F) (protein, UniProt Q61107 1-620)
chain: MEAPICLVENWKNQLTVNLEAIRILEQIAQPLVVVAIVGLYRTGKSYLMNRLAGRNHGFSLGSTVQSETKGIWMWCVPHPTKPTHTLVLLDTEGLGDVEKGDPKNDSWIFALAVLLSSTFVYNSMSTINQQALEQLHFVTELTQLIRAKSSPREDKVKDSSEFVGFFPDFIWAVRDFALELKLNGRPITEDEYLENALKLIQGDNLKVQQSNMTRECIRYFFPVRKCFVFDRPTSDKRLLLQIENVPENQLERNFQVESEKFCSYIFTNGKTKTLRGGVIVTGNRLGTLVQTYVNAINSGTVPCLENAVTTLAQRENSIAVQKAADHYSEQMAQRMRLPTDTLQELLTVHAACEKEAIAVFMEHSFKDDEQEFQKKLVVTIEERKEEFIRQNEAASIRHCQAELERLSESLRKSISCGAFSVPGGHSLYLEARKKIELGYQQVLRKGVKAKEVLKSFLQSQAIMEDSILQSDKALTDGERAIAAERTKKEVAEKELELLRQRQKEQEQVMEAQERSFRENIAKLQEKMESEKEMLLREQEKMLEHKLKVQEELLIEGFREKSDMLKNEISHLREEMERTRRKPSLFGQILDTIGNAFIMILPGAGKLFGVGLKFLGSLSS
As for B5, in assay [3], the binding entry is “no binding”.

B6: RFP-Gbp3^S46N (protein, UniProt Q61107 1-620)
chain: MEAPICLVENWKNQLTVNLEAIRILEQIAQPLVVVAIVGLYRTGKNYLMNRLAGRNHGFSLGSTVQSETKGIWMWCVPHPTKPTHTLVLLDTEGLGDVEKGDPKNDSWIFALAVLLSSTFVYNSMSTINQQALEQLHFVTELTQLIRAKSSPREDKVKDSSEFVGFFPDFIWAVRDFALELKLNGRPITEDEYLENALKLIQGDNLKVQQSNMTRECIRYFFPVRKCFVFDRPTSDKRLLLQIENVPENQLERNFQVESEKFCSYIFTNGKTKTLRGGVIVTGNRLGTLVQTYVNAINSGTVPCLENAVTTLAQRENSIAVQKAADHYSEQMAQRMRLPTDTLQELLTVHAACEKEAIAVFMEHSFKDDEQEFQKKLVVTIEERKEEFIRQNEAASIRHCQAELERLSESLRKSISCGAFSVPGGHSLYLEARKKIELGYQQVLRKGVKAKEVLKSFLQSQAIMEDSILQSDKALTDGERAIAAERTKKEVAEKELELLRQRQKEQEQVMEAQERSFRENIAKLQEKMESEKEMLLREQEKMLEHKLKVQEELLIEGFREKSDMLKNEISHLREEMERTRRKPSLFGQILDTIGNAFIMILPGAGKLFGVGLKFLGSLSS
As to B6, the binding result with Gsdmd-N-GFP (mouse) [5] and with Gsdmd-N-GFP (mouse) [6] was “no binding” in each case.

B7: Myc-Flag-Gbp3 (protein, UniProt Q61107 1-620)
chain: MEAPICLVENWKNQLTVNLEAIRILEQIAQPLVVVAIVGLYRTGKSYLMNRLAGRNHGFSLGSTVQSETKGIWMWCVPHPTKPTHTLVLLDTEGLGDVEKGDPKNDSWIFALAVLLSSTFVYNSMSTINQQALEQLHFVTELTQLIRAKSSPREDKVKDSSEFVGFFPDFIWAVRDFALELKLNGRPITEDEYLENALKLIQGDNLKVQQSNMTRECIRYFFPVRKCFVFDRPTSDKRLLLQIENVPENQLERNFQVESEKFCSYIFTNGKTKTLRGGVIVTGNRLGTLVQTYVNAINSGTVPCLENAVTTLAQRENSIAVQKAADHYSEQMAQRMRLPTDTLQELLTVHAACEKEAIAVFMEHSFKDDEQEFQKKLVVTIEERKEEFIRQNEAASIRHCQAELERLSESLRKSISCGAFSVPGGHSLYLEARKKIELGYQQVLRKGVKAKEVLKSFLQSQAIMEDSILQSDKALTDGERAIAAERTKKEVAEKELELLRQRQKEQEQVMEAQERSFRENIAKLQEKMESEKEMLLREQEKMLEHKLKVQEELLIEGFREKSDMLKNEISHLREEMERTRRKPSLFGQILDTIGNAFIMILPGAGKLFGVGLKFLGSLSS
In the case of B7, in the assay with HA-Gsdmd C-term (mouse), the binding result is given as “no binding”.

B8: Gsdmd-N-GFP (domain or fragment, UniProt Q9D8T2 1-248)
chain: MPSAFEKVVKNVIKEVSGSRGDLIPVDSLRNSTSFRPYCLLNRKFSSSRFWKPRYSCVNLSIKDILEPSAPEPEPECFGSFKVSDVVDGNIQGRVMLSGMGEGKISGGAAVSDSSSASMNVCILRVTQKTWETMQHERHLQQPENKILQQLRSRGDDLFVVTEVLQTKEEVQITEVHSQEGSGQFTLPGALCLKGEGKGHQSRKKMVTIPAGSILAFRVAQLLIGSKWDILLVSDEKQRTFEPSSGDR
As to B8, the binding entry with Gsdmd-N-GFP (mouse) [7] is “binds”.
